Results from publication PMC10238091.
No constants are given. Whether binding was seen depends on the method and setting. Binding seen in cells or lysates may run through a third protein. These calls come from enrichment with a bait or labelling near it, and not all partners need be listed. Where a sequence is shown, tags or fusion partners need not be part of it.

T1: SA1 (Stromalin Antigen 1, STAG1) (human (endogenous in HCT116 and HeLa)) (UniProt Q8WVM7)
T1 sequence: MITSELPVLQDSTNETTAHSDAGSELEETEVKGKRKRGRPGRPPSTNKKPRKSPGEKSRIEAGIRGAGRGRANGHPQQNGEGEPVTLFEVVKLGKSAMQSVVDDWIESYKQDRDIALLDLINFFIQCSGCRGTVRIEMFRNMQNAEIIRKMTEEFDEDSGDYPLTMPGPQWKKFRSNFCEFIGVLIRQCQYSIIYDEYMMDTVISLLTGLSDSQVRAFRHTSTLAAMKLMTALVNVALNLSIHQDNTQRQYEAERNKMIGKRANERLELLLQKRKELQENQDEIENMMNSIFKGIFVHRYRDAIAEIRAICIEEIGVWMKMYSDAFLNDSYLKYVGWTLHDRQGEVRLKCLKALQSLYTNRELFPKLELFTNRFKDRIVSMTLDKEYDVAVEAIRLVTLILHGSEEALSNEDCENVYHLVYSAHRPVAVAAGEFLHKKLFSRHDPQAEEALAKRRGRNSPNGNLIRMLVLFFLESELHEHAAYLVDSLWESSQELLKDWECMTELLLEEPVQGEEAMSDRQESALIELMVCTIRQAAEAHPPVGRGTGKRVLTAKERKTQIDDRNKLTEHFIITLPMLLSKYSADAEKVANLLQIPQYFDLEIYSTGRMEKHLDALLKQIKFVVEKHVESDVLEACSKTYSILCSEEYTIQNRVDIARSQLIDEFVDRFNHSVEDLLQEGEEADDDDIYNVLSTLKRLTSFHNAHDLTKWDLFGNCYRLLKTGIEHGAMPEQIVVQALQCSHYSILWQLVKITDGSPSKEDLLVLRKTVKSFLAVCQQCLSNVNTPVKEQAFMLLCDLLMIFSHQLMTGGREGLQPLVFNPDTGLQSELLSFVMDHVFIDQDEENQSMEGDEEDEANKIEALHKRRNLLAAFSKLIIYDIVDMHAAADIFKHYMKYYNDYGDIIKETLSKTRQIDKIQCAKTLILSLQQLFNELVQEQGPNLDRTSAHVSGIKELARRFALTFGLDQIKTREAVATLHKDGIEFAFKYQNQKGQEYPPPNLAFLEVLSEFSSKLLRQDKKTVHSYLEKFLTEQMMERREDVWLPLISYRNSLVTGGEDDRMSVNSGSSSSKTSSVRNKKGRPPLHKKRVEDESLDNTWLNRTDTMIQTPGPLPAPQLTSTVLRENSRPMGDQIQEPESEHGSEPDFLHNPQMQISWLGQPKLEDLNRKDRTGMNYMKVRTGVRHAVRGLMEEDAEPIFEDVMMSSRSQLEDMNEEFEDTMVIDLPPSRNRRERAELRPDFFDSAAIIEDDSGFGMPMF

B1: ADAR1 (protein, UniProt P55265 1-1226)
chain: MNPRQGYSLSGYYTHPFQGYEHRQLRYQQPGPGSSPSSFLLKQIEFLKGQLPEAPVIGKQTPSLPPSLPGLRPRFPVLLASSTRGRQVDIRGVPRGVHLRSQGLQRGFQHPSPRGRSLPQRGVDCLSSHFQELSIYQDQEQRILKFLEELGEGKATTAHDLSGKLGTPKKEINRVLYSLAKKGKLQKEAGTPPLWKIAVSTQAWNQHSGVVRPDGHSQGAPNSDPSLEPEDRNSTSVSEDLLEPFIAVSAQAWNQHSGVVRPDSHSQGSPNSDPGLEPEDSNSTSALEDPLEFLDMAEIKEKICDYLFNVSDSSALNLAKNIGLTKARDINAVLIDMERQGDVYRQGTTPPIWHLTDKKRERMQIKRNTNSVPETAPAAIPETKRNAEFLTCNIPTSNASNNMVTTEKVENGQEPVIKLENRQEARPEPARLKPPVHYNGPSKAGYVDFENGQWATDDIPDDLNSIRAAPGEFRAIMEMPSFYSHGLPRCSPYKKLTECQLKNPISGLLEYAQFASQTCEFNMIEQSGPPHEPRFKFQVVINGREFPPAEAGSKKVAKQDAAMKAMTILLEEAKAKDSGKSEESSHYSTEKESEKTAESQTPTPSATSFFSGKSPVTTLLECMHKLGNSCEFRLLSKEGPAHEPKFQYCVAVGAQTFPSVSAPSKKVAKQMAAEEAMKALHGEATNSMASDNQPEGMISESLDNLESMMPNKVRKIGELVRYLNTNPVGGLLEYARSHGFAAEFKLVDQSGPPHEPKFVYQAKVGGRWFPAVCAHSKKQGKQEAADAALRVLIGENEKAERMGFTEVTPVTGASLRRTMLLLSRSPEAQPKTLPLTGSTFHDQIAMLSHRCFNTLTNSFQPSLLGRKILAAIIMKKDSEDMGVVVSLGTGNRCVKGDSLSLKGETVNDCHAEIISRRGFIRFLYSELMKYNSQTAKDSIFEPAKGGEKLQIKKTVSFHLYISTAPCGDGALFDKSCSDRAMESTESRHYPVFENPKQGKLRTKVENGEGTIPVESSDIVPTWDGIRLGERLRTMSCSDKILRWNVLGLQGALLTHFLQPIYLKSVTLGYLFSQGHLTRAICCRVTRDGSAFEDGLRHPFIVNHPKVGRVSIYDSKRQSGKTKETSVNWCLADGYDLEILDGTRGTVDGPRNELSRVSKKNIFLLFKKLCSFRYRRDLLRLSYGEAKKAARDYETAKNYFKKGLKDMGYGNWISKPQEEKNFYLCPV
B2: FTSJ3 (protein, UniProt Q8IY81 1-847)
chain: MGKKGKVGKSRRDKFYHLAKETGYRSRSAFKLIQLNRRFQFLQKARALLDLCAAPGGWLQVAAKFMPVSSLIVGVDLVPIKPLPNVVTLQQDITTERCRQALRKELKTWKVDVVLNDGAPNVGASWVHDAYSQAHLTLMALRLACDFLARGGSFITKVFRSRDYQPLLWIFQQLFRRVQATKPQASRHESAEIFVVCQGFLAPDKVDSKFFDPKFAFKEVEVQAKTVTELVTKKKPKAEGYAEGDLTLYHRTSVTDFLRAANPVDFLSKASEIMVDDEELAQHPATTEDIRVCCQDIRVLGRKELRSLLNWRTKLRRYVAKKLKEQAKALDISLSSGEEDEGDEEDSTAGTTKQPSKEEEEEEEEEQLNQTLAEMKAQEVAELKRKKKKLLREQRKQRERVELKMDLPGVSIADEGETGMFSLSTIRGHQLLEEVTQGDMSAADTFLSDLPRDDIYVSDVEDDGDDTSLDSDLDPEELAGVRGHQGLRDQKRMRLTEVQDDKEEEEEENPLLVPLEEKAVLQEEQANLWFSKGSFAGIEDDADEALEISQAQLLFENRRKGRQQQQKQQLPQTPPSCLKTEIMSPLYQDEAPKGTEASSGTEAATGLEGEEKDGISDSDSSTSSEEEESWEPLRGKKRSRGPKSDDDGFEIVPIEDPAKHRILDPEGLALGAVIASSKKAKRDLIDNSFNRYTFNEDEGELPEWFVQEEKQHRIRQLPVGKKEVEHYRKRWREINARPIKKVAEAKARKKRRMLKRLEQTRKKAEAVVNTVDISEREKVAQLRSLYKKAGLGKEKRHVTYVVAKKGVGRKVRRPAGVRGHFKVVDSRMKKDQRAQQRKEQKKKHKRK
B3: DHX29 (protein, UniProt Q7Z478 1-1369)
chain: MGGKNKKHKAPAAAVVRAAVSASRAKSAEAGIAGEAQSKKPVSRPATAAAAAAGSREPRVKQGPKIYSFNSTNDSSGPANLDKSILKVVINNKLEQRIIGVINEHKKQNNDKGMISGRLTAKKLQDLYMALQAFSFKTKDIEDAMTNTLLYGGDLHSALDWLCLNLSDDALPEGFSQEFEEQQPKSRPKFQSPQIQATISPPLQPKTKTYEEDPKSKPKKEEKNMEVNMKEWILRYAEQQNEEEKNENSKSLEEEEKFDPNERYLHLAAKLLDAKEQAATFKLEKNKQGQKEAQEKIRKFQREMETLEDHPVFNPAMKISHQQNERKKPPVATEGESALNFNLFEKSAAATEEEKDKKKEPHDVRNFDYTARSWTGKSPKQFLIDWVRKNLPKSPNPSFEKVPVGRYWKCRVRVIKSEDDVLVVCPTILTEDGMQAQHLGATLALYRLVKGQSVHQLLPPTYRDVWLEWSDAEKKREELNKMETNKPRDLFIAKLLNKLKQQQQQQQQHSENKRENSEDPEESWENLVSDEDFSALSLESANVEDLEPVRNLFRKLQSTPKYQKLLKERQQLPVFKHRDSIVETLKRHRVVVVAGETGSGKSTQVPHFLLEDLLLNEWEASKCNIVCTQPRRISAVSLANRVCDELGCENGPGGRNSLCGYQIRMESRACESTRLLYCTTGVLLRKLQEDGLLSNVSHVIVDEVHERSVQSDFLLIILKEILQKRSDLHLILMSATVDSEKFSTYFTHCPILRISGRSYPVEVFHLEDIIEETGFVLEKDSEYCQKFLEEEEEVTINVTSKAGGIKKYQEYIPVQTGAHADLNPFYQKYSSRTQHAILYMNPHKINLDLILELLAYLDKSPQFRNIEGAVLIFLPGLAHIQQLYDLLSNDRRFYSERYKVIALHSILSTQDQAAAFTLPPPGVRKIVLATNIAETGITIPDVVFVIDTGRTKENKYHESSQMSSLVETFVSKASALQRQGRAGRVRDGFCFRMYTRERFEGFMDYSVPEILRVPLEELCLHIMKCNLGSPEDFLSKALDPPQLQVISNAMNLLRKIGACELNEPKLTPLGQHLAALPVNVKIGKMLIFGAIFGCLDPVATLAAVMTEKSPFTTPIGRKDEADLAKSALAMADSDHLTIYNAYLGWKKARQEGGYRSEITYCRRNFLNRTSLLTLEDVKQELIKLVKAAGFSSSTTSTSWEGNRASQTLSFQEIALLKAVLVAGLYDNVGKIIYTKSVDVTEKLACIVETAQGKAQVHPSSVNRDLQTHGWLLYQEKIRYARVYLRETTLITPFPVLLFGGDIEVQHRERLLSIDGWIYFQAPVKIAVIFKQLRVLIDSVLRKKLENPKMSLENDKILQIITELIKTENN
B4: ESYT2 (protein, UniProt A0FGR8 1-921)
chain: MTANRDAALSSHRHPGCAQRPRTPTFASSSQRRSAFGFDDGNFPGLGERSHAPGSRLGARRRAKTARGLRGHRQRGAGAGLSRPGSARAPSPPRPGGPENPGGVLSVELPGLLAQLARSFALLLPVYALGYLGLSFSWVLLALALLAWCRRSRGLKALRLCRALALLEDEERVVRLGVRACDLPAWVHFPDTERAEWLNKTVKHMWPFICQFIEKLFRETIEPAVRGANTHLSTFSFTKVDVGQQPLRINGVKVYTENVDKRQIILDLQISFVGNCEIDLEIKRYFCRAGVKSIQIHGTMRVILEPLIGDMPLVGALSIFFLRKPLLEINWTGLTNLLDVPGLNGLSDTIILDIISNYLVLPNRITVPLVSEVQIAQLRFPVPKGVLRIHFIEAQDLQGKDTYLKGLVKGKSDPYGIIRVGNQIFQSRVIKENLSPKWNEVYEALVYEHPGQELEIELFDEDPDKDDFLGSLMIDLIEVEKERLLDEWFTLDEVPKGKLHLRLEWLTLMPNASNLDKVLTDIKADKDQANDGLSSALLILYLDSARNLPSGKKISSNPNPVVQMSVGHKAQESKIRYKTNEPVWEENFTFFIHNPKRQDLEVEVRDEQHQCSLGNLKVPLSQLLTSEDMTVSQRFQLSNSGPNSTIKMKIALRVLHLEKRERPPDHQHSAQVKRPSVSKEGRKTSIKSHMSGSPGPGGSNTAPSTPVIGGSDKPGMEEKAQPPEAGPQGLHDLGRSSSSLLASPGHISVKEPTPSIASDISLPIATQELRQRLRQLENGTTLGQSPLGQIQLTIRHSSQRNKLIVVVHACRNLIAFSEDGSDPYVRMYLLPDKRRSGRRKTHVSKKTLNPVFDQSFDFSVSLPEVQRRTLDVAVKNSGGFLSKDKGLLGKVLVALASEELAKGWTQWYDLTEDGTRPQAMT

biological target: T1, SA1 (Stromalin Antigen 1, STAG1) (human (endogenous in HCT116 and HeLa)); test: affinity purification with mass spectrometry; endogenous SA1 IP (15 μg antibody, 2 mg chromatin extract) from RAD21mAC cells untreated or IAA 4 h, with IgG and siSA1 controls; LC-MS/MS, three biological replicates

binding, binds:
B1, B2, B3, B4
